Results deposited as PubChem BioAssay AID1259308 (NCATS, 2017).
Shown is an unselected part of about 59,000 reagents tested. Over the whole deposit, about 1,510 (2.6%) were called active. 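Calls use total luciferase alone and ignore viability, so some active siRNAs may act by altering cell number.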 Entries without a mark were called inactive. Reagents against one gene are numbered here.

Purpose: 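Genes whose loss raises luciferase production in HEK293 cells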 (primary screen)
Cell system: human HEK293 embryonic kidney cells stably expressing firefly luciferase (HEK-CMV-Luc2-Hygro)
Reagents: single siRNA against human genes, 0.8 pmol siRNA per well
Duration: 72 h
Detection: 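Reporter luminescence and viable-cell signal on separate replicate plates, given as percent of non-targeting control and median/MAD z-scores, plus per-cell luciferase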
Direction: total luciferase, z-score and total luciferase, % of control: higher = more reporter protein produced; luciferase per cell, z-score: higher = more reporter output per viable cell; viable cells, % of control: higher = more viable cells
Rule for the call: 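An siRNA counts as active if its total luciferase robust z-score exceeds 3; genes with two or more such siRNAs out of three were retested with fresh siRNAs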
Meaning of the calls: active = raised luciferase; inactive = no rise

Gene	reagent no.	total luciferase, z-score	total luciferase, % of control	luciferase per cell, z-score	viable cells, % of control
IL17REL (GeneID 400935)	1	1.41	110	0.753	101
IL17REL (GeneID 400935)	2	-1.41	53.8	-1.64	92.6
IL17REL (GeneID 400935)	3	7.29 (active)	227	3.88	91.4
ACACB (GeneID 32)	1	-0.821	65.6	-1.34	104
ACACB (GeneID 32)	2	1.3	108	0.59	103
ACACB (GeneID 32)	3	0.833	98.5	0.00447	110
FUT8 (GeneID 2530)	1	1.45	111	1.27	88.5
FUT8 (GeneID 2530)	2	0.938	101	0.742	92.4
FUT8 (GeneID 2530)	3	-1.03	61.5	-1.09	91.5
GDF9 (GeneID 2661)	1	0.942	101	1.49	75.9
GDF9 (GeneID 2661)	2	-0.827	65.4	0.0215	72.7
GDF9 (GeneID 2661)	3	2.65	135	2.49	78.1
PARP14 (GeneID 54625)	1	0.132	84.5	-0.0594	95.9
PARP14 (GeneID 54625)	2	-0.735	67.3	-0.56	87.1
PARP14 (GeneID 54625)	3	-1.63	49.6	-1.49	82.1
ERN1 (GeneID 2081)	1	1.17	105	0.146	113
ERN1 (GeneID 2081)	2	1.6	114	1.3	90.1
ERN1 (GeneID 2081)	3	0.272	87.3	-0.178	102
IL9R (GeneID 3581)	1	-1.35	55.1	-1.6	93.8
IL9R (GeneID 3581)	2	-0.233	77.3	-0.345	94.6
IL9R (GeneID 3581)	3	0.822	98.2	1.38	76.4
SELENOS (GeneID 55829)	1	0.358	89	0.129	96.1
SELENOS (GeneID 55829)	2	0.0188	82.3	-0.00929	92.1
SELENOS (GeneID 55829)	3	-0.0973	80	-0.101	91.7
DNAJC6 (GeneID 9829)	1	-1.78	46.5	-0.89	65.7
DNAJC6 (GeneID 9829)	2	0.688	95.6	0.0725	105
DNAJC6 (GeneID 9829)	3	-1.37	54.6	-0.859	76.6
NTRK3 (GeneID 4916)	1	-0.0903	80.1	0.824	72
NTRK3 (GeneID 4916)	2	0.633	94.5	1.11	78.8
NTRK3 (GeneID 4916)	3	-0.609	69.8	-1.28	109
FZD5 (GeneID 7855)	1	0.882	99.4	0.133	107
FZD5 (GeneID 7855)	2	0.399	89.8	0.28	93.2
FZD5 (GeneID 7855)	3	2.26	127	1.68	91

Already shown: an excerpt of the list.
Gene	reagent no.	total luciferase, z-score	total luciferase, % of control	luciferase per cell, z-score	viable cells, % of control
FUT8 (GeneID 2530)	3	-1.03	61.5	-1.09	91.5
GDF9 (GeneID 2661)	1	0.942	101	1.49	75.9
GDF9 (GeneID 2661)	2	-0.827	65.4	0.0215	72.7

Additional records:
Gene	reagent no.	total luciferase, z-score	total luciferase, % of control	luciferase per cell, z-score	viable cells, % of control
GC (GeneID 2638)	1	-1.71	47.8	-2.34	99
GC (GeneID 2638)	2	0.68	95.4	0.683	89.1
GC (GeneID 2638)	3	0.688	95.6	0.199	101
GHDC (GeneID 84514)	1	2.32	128	1.15	106
GHDC (GeneID 84514)	2	-0.0152	81.6	0.25	85.4
GHDC (GeneID 84514)	3	-0.583	70.3	-0.852	98.3
KIF21B (GeneID 23046)	1	-0.0163	81.6	-0.604	107
KIF21B (GeneID 23046)	2	0.0963	83.8	0.901	73.9
KIF21B (GeneID 23046)	3	-0.0115	81.7	-0.209	96.4
KANK3 (GeneID 256949)	1	-0.44	73.1	0.091	79.8
KANK3 (GeneID 256949)	2	0.00396	82	-0.363	101
KANK3 (GeneID 256949)	3	1.65	115	0.973	99.2
NELFE (GeneID 7936)	1	4.05 (active)	162	1.85	111
NELFE (GeneID 7936)	2	1.18	105	2.21	65.8
NELFE (GeneID 7936)	3	4.85 (active)	178	2.72	97.3
POC1B (GeneID 282809)	1	-2.04	41.2	-2.47	88.4
POC1B (GeneID 282809)	2	-0.892	64.1	0.239	67.3
POC1B (GeneID 282809)	3	-0.452	72.9	0.167	78
CRYZ (GeneID 1429)	1	2.02	122	2.58	69.2
CRYZ (GeneID 1429)	2	-0.464	72.7	-1.01	106
CRYZ (GeneID 1429)	3	0.234	86.5	0.254	90.5
CDC42EP3 (GeneID 10602)	1	1.09	104	-0.143	120
CDC42EP3 (GeneID 10602)	2	0.894	99.7	0.333	102
CDC42EP3 (GeneID 10602)	3	-0.607	69.8	-0.969	101
